Data as given in PubChem BioAssay AID1259405 (NCATS, 2018)

Aim: 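Mouse-designed siRNAs used to find CHO productivity engineering targets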 (primary screen)
Cell system: Chinese hamster CHO-K1 ovary cells with stable secreted eGFP expression
Reagent: single siRNA against mouse genes, 0.8 pmol siRNA per well (2 µl of 400 nM stock)
Timing: 3 days
Measured: 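Per-well intracellular GFP measured by laser scanning cytometry, plus viability from ATP luminescence, each relative to plate median of non-targeting control wells, in %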
Direction: GFP, % of control: higher = more GFP per well, higher productivity; viability (ATP), % of control: higher = more viable cells (more ATP)
Call rule: 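Called active when intracellular GFP, relative to negative control, is at or above 120%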
This is an unselected part of about 50,000 deposited reagents. Over the whole deposit, about 4,000 (8%) were called active. 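Mouse siRNA library applied to hamster cells; one well for each siRNA.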 Unmarked entries are inactive.

| gene | PubChem SID | GFP, % of control | viability (ATP), % of control |
| --- | --- | --- | --- |
| Lratd1 (LRAT domain containing 1) | SID363546569 | 88.9 | 77.1 |
| Lratd1 (LRAT domain containing 1) | SID363548325 | 65.5 | 75.9 |
| Lratd1 (LRAT domain containing 1) | SID363560503 | 101 | 112 |
| Rictor (RPTOR independent companion of MTOR, complex 2) | SID363542483 | 69.8 | 67.6 |
| Rictor (RPTOR independent companion of MTOR, complex 2) | SID363551974 | 71.9 | 48.3 |
| Rictor (RPTOR independent companion of MTOR, complex 2) | SID363559579 | 124 (active) | 104 |
| Efhc2 (EF-hand domain (C-terminal) containing 2) | SID363539615 | 65.4 | 67.1 |
| Efhc2 (EF-hand domain (C-terminal) containing 2) | SID363560916 | 41.8 | 49.7 |
| Efhc2 (EF-hand domain (C-terminal) containing 2) | SID363565006 | 92.6 | 88.4 |
| Cxcr2 (C-X-C motif chemokine receptor 2) | SID363571124 | 117 | 99.4 |
| Cxcr2 (C-X-C motif chemokine receptor 2) | SID363571476 | 79.1 | 80.3 |
| Cxcr2 (C-X-C motif chemokine receptor 2) | SID363571828 | 55.1 | 50.4 |
| Csnk1a1 (casein kinase 1, alpha 1) | SID363547396 | 84.3 | 94.4 |
| Csnk1a1 (casein kinase 1, alpha 1) | SID363558165 | 18.5 | 18.5 |
| Csnk1a1 (casein kinase 1, alpha 1) | SID363559923 | 90 | 106 |
| Ube2d1 (ubiquitin-conjugating enzyme E2D 1) | SID363572757 | 47 | 44 |
| Ube2d1 (ubiquitin-conjugating enzyme E2D 1) | SID363578037 | 78.2 | 66.4 |
| Ube2d1 (ubiquitin-conjugating enzyme E2D 1) | SID363582261 | 86.9 | 138 |
| Adamts20 (ADAM metallopeptidase with thrombospondin type 1 motif 20) | SID363547231 | 68.5 | 89.7 |
| Adamts20 (ADAM metallopeptidase with thrombospondin type 1 motif 20) | SID363558000 | 50.4 | 70.9 |
| Adamts20 (ADAM metallopeptidase with thrombospondin type 1 motif 20) | SID363559758 | 63.1 | 55.7 |
| Setd5 (SET domain containing 5) | SID363544028 | 60.4 | 82.3 |
| Setd5 (SET domain containing 5) | SID363551764 | 39.3 | 60.1 |
| Setd5 (SET domain containing 5) | SID363559369 | 49.4 | 52.2 |
| Zbtb46 (zinc finger and BTB domain containing 46) | SID363546850 | 82.3 | 93.3 |
| Zbtb46 (zinc finger and BTB domain containing 46) | SID363549662 | 74.7 | 60.4 |
| Zbtb46 (zinc finger and BTB domain containing 46) | SID363587716 | 132 (active) | 117 |
| Banf2 (BANF family member 2) | SID363545631 | 102 | 53.1 |
| Banf2 (BANF family member 2) | SID363549144 | 78.2 | 115 |
| Banf2 (BANF family member 2) | SID363562950 | 64.7 | 36.8 |
| Pitx2 (paired-like homeodomain transcription factor 2) | SID363545793 | 65.1 | 54.9 |
| Pitx2 (paired-like homeodomain transcription factor 2) | SID363549306 | 83.9 | 64.6 |
| Pitx2 (paired-like homeodomain transcription factor 2) | SID363563112 | 83.1 | 59.3 |
| Pcdhgb6 (protocadherin gamma subfamily B, 6) | SID363541930 | 65.5 | 59.7 |
| Pcdhgb6 (protocadherin gamma subfamily B, 6) | SID363553522 | 85.9 | 74.1 |
| Pcdhgb6 (protocadherin gamma subfamily B, 6) | SID363566846 | 4.93 | 8.2 |
| Ccdc50 (coiled-coil domain containing 50) | SID363543919 | 88.5 | 34.3 |
| Ccdc50 (coiled-coil domain containing 50) | SID363551655 | 39.9 | 56.6 |
| Ccdc50 (coiled-coil domain containing 50) | SID363559260 | 66.2 | 94.2 |
| Pcdha8 (protocadherin alpha 8) | SID363541837 | 68.1 | 64.8 |
| Pcdha8 (protocadherin alpha 8) | SID363553429 | 55.6 | 48.6 |
| Pcdha8 (protocadherin alpha 8) | SID363566753 | 66.1 | 70.8 |
| Cyp3a25 (cytochrome P450, family 3, subfamily a, polypeptide 25) | SID363573050 | 143 (active) | 93.7 |
| Cyp3a25 (cytochrome P450, family 3, subfamily a, polypeptide 25) | SID363577626 | 54.1 | 81.1 |
| Cyp3a25 (cytochrome P450, family 3, subfamily a, polypeptide 25) | SID363581146 | 75.8 | 74 |
| Qrfpr (pyroglutamylated RFamide peptide receptor) | SID363571147 | 109 | 90.3 |
| Qrfpr (pyroglutamylated RFamide peptide receptor) | SID363571499 | 76 | 76.4 |
| Qrfpr (pyroglutamylated RFamide peptide receptor) | SID363571851 | 84.7 | 82.1 |
| Apol10a (apolipoprotein L 10A) | SID363552450 | 51.7 | 72.1 |
| Apol10a (apolipoprotein L 10A) | SID363585586 | 50.7 | 59.3 |
| Apol10a (apolipoprotein L 10A) | SID363585937 | 90.5 | 88.2 |
| Ppp1r13l (protein phosphatase 1, regulatory subunit 13 like) | SID363554025 | 99 | 60.9 |
| Ppp1r13l (protein phosphatase 1, regulatory subunit 13 like) | SID363561982 | 158 (active) | 82 |
| Ppp1r13l (protein phosphatase 1, regulatory subunit 13 like) | SID363565720 | 91.1 | 83.1 |
| Tcta (T cell leukemia translocation altered gene) | SID363556387 | 83 | 103 |
| Tcta (T cell leukemia translocation altered gene) | SID363586837 | 75.5 | 91.5 |
| Tcta (T cell leukemia translocation altered gene) | SID363588945 | 193 (active) | 175 |
| Tcta (T cell leukemia translocation altered gene) | SID363589861 | 87.4 | 77.2 |
| Tcta (T cell leukemia translocation altered gene) | SID363589862 | 85.8 | 103 |
| Tcta (T cell leukemia translocation altered gene) | SID363589863 | 95.6 | 103 |

10 of these entries, set out differently:
{"gene":"Setd5 (SET domain containing 5)","PubChem SID":"SID363559369","GFP, % of control":49.4,"viability (ATP), % of control":52.2}
{"gene":"Zbtb46 (zinc finger and BTB domain containing 46)","PubChem SID":"SID363546850","GFP, % of control":82.3,"viability (ATP), % of control":93.3}
{"gene":"Zbtb46 (zinc finger and BTB domain containing 46)","PubChem SID":"SID363549662","GFP, % of control":74.7,"viability (ATP), % of control":60.4}
{"gene":"Zbtb46 (zinc finger and BTB domain containing 46)","PubChem SID":"SID363587716","GFP, % of control":"132 (active)","viability (ATP), % of control":117}
{"gene":"Banf2 (BANF family member 2)","PubChem SID":"SID363545631","GFP, % of control":102,"viability (ATP), % of control":53.1}
{"gene":"Banf2 (BANF family member 2)","PubChem SID":"SID363549144","GFP, % of control":78.2,"viability (ATP), % of control":115}
{"gene":"Banf2 (BANF family member 2)","PubChem SID":"SID363562950","GFP, % of control":64.7,"viability (ATP), % of control":36.8}
{"gene":"Pitx2 (paired-like homeodomain transcription factor 2)","PubChem SID":"SID363545793","GFP, % of control":65.1,"viability (ATP), % of control":54.9}
{"gene":"Pitx2 (paired-like homeodomain transcription factor 2)","PubChem SID":"SID363549306","GFP, % of control":83.9,"viability (ATP), % of control":64.6}
{"gene":"Pitx2 (paired-like homeodomain transcription factor 2)","PubChem SID":"SID363563112","GFP, % of control":83.1,"viability (ATP), % of control":59.3}
